Results taken from patent publication US20100266575A1.
These are yes or no findings as the source states them, for the method shown. Some binding calls cover weakened binding; strength is not graded here.

Amino acid sequences for entries named in this document (tags omitted). A change or cut given only in a name is not applied to a line headed by its entry.
UniProt P17948: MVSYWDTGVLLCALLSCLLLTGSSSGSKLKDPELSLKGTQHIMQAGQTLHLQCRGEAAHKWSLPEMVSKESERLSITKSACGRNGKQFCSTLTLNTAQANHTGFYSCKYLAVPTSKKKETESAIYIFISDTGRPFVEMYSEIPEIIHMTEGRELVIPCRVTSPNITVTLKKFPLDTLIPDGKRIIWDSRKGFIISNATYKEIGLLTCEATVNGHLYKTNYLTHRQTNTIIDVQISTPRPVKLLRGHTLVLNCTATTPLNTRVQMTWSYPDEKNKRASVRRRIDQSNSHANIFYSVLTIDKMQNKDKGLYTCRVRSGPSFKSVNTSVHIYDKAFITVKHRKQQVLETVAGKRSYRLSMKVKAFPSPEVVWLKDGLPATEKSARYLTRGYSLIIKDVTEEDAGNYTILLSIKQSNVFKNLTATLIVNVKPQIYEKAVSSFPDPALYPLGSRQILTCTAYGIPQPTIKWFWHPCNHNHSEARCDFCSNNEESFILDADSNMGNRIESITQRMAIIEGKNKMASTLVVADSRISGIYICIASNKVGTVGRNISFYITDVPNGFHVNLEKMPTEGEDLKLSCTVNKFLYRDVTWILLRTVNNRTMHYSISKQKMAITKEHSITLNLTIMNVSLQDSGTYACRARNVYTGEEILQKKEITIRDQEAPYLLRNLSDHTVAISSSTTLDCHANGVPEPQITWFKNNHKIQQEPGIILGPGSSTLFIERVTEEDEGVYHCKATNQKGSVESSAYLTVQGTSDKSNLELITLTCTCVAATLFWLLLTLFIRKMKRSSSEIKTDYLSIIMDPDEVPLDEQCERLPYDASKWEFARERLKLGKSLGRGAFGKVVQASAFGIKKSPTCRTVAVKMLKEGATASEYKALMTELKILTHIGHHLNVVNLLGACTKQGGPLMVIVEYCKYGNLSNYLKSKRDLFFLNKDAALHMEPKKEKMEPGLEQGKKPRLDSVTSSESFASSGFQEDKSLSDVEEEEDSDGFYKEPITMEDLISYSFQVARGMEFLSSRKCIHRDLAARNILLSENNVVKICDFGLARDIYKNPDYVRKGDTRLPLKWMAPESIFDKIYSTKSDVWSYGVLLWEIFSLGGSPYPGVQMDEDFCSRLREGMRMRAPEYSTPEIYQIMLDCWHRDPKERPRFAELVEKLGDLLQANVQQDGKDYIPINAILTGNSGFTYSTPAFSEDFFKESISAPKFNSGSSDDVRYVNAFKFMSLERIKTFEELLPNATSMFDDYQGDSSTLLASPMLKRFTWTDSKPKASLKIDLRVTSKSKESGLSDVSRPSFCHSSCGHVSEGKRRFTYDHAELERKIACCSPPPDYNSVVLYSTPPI

Key:
[1] = target: sFlt-1 (R&D Systems; construct not stated) (human) (UniProt P17948); assay: … sandwich: 1-833-527 on microparticles, 321 conjugate, sFlt-1 free and complexed with PlGF
[2] = target: sFlt-1 (R&D Systems; construct not stated) (human) (UniProt P17948); assay: chemiluminescence immunoassay: supernatant antibody captured on anti-mouse IgG Fc, sFlt-1, PlGF-ACR tracer
[3] = target: sFlt-1 domains 1-6:Fc chimera from Sf21 cells using baculovirus (human) (UniProt P17948); assay: double-mAb sandwich CMIA on … (Example 7); positive = RLU > 400,000 at 1,000 pg/mL calibrator
[4] = target: sFlt-1 (R&D Systems; construct not stated) (human) (UniProt P17948); assay: competitive inhibition ELISA: sFlt-1 held on coated PlGF, biotin-labeled 1-833-217

B1: anti-sFlt-1 monoclonal antibody 1-833-527 (antibody, V domains shown)
VH: QVQLQQSGAELVGPGSSVKISCKASGYAFSSYWMNWVKQRPGQGLEWIGQIYPGDGDTNYNGKFRGKVTLTADRSSSTADMQLSSLTSEDSAVYFCARDDGYEGFDYWGQGTTLTVSS
VL: DIVMTQSQKFMSTTVGDRVSLTCKASQSVGTAVAWYQEKTGQSPKLLIYSASNRYTGVPDRFTGSGSGTDFILTIRNMQSVDLADYFCQQYFTYPYTFGGGTKLEIQR
- binding [1]: binds
- binding [2]: binds
- binding [3]: binds

B2: anti-sFlt-1 monoclonal antibody 1-833-217 (antibody, V domains shown)
VH: B1 VH
VL: B1 VL
- binding [2]: binds
- binding [4]: binds
